At least one peptide structure holds a part that was inferred or is arguable (an end, a ring closure or a residue). Where no end group is shown, it is not given here.
Columns and labels:
[1] = biological target: Go (Homo sapiens, UniProt P09471); experiment: GTPγS binding, MIII-induced Go activation; format: biochemical
Protocol: (§1) GTPγS binding Assay--GTPγS binding to G proteins was assayed at 37° C. in 20 mM Hepes/NaOH buffer (pH 7.4) containing 130 μM MgCl2, 110 μM EDTA and 60 nM [^35 S]GTPγS, as described previously (Okamoto et al., 1990). GTPγS binding to polypeptides was negligible. The total amount of G protein was measured as maximal GTPγS binding at room temperature, as described (Okamoto et al., Cell 67:723-730, 1991a). [^35 S]GTPγS was purchased from DuPont-New England Nuclear. Binding of GTPγS to G proteins obeyed first-order kinetics according to the equation ln[(BT-B)/BT]=-kapp t, where B is the binding at time t and BT is the total binding observable at an infinite time. Thus, the apparent first-order rate constant for GTPγS binding (kapp), which is equal to the slope of the tangent to the GTPγS binding curve at time 0 and represents the actual GTPγS binding rate, was calculated from this equation.
The MIII peptide is a Gi /Go -activator region in the third intracellular loop of the G-coupled receptor termed M4 AChR (Okamoto et al., J. Biol. Chem. 267:8342-8346, 1992). This peptide has the sequence RNQVRKKRQMAARERKVTR (SEQ ID NO: 30). In the experiments illustrated in FIG. 1D, 10 nM Go (.quadrature.) or Gi2 (.diamond-solid.) was incubated with 1 μM MIII for 2 or 5 min, respectively, and GTPγS binding was measured in the same manner as in FIG. 1A. The fractional GTPγS binding to Go at 0% and 100% was 0.36 and 0.86 (2 min^-1) respectively, and that to Gi2 at 0% and 100% was 0.30 and 0.96 (5 min^-1), respectively. […] ACGi2 can therefore inhibit Gi2 activation caused by the effector peptides of m4 AChR and IGF-IIR with similar potencies. […] This provides strong evidence that ACGi2 acts on G proteins rather than on receptor peptides.

By UniProt entry, the sequences of proteins in these tests, tags left out. Residues count along the entry.
UniProt P09471, 2-354 limits assumed: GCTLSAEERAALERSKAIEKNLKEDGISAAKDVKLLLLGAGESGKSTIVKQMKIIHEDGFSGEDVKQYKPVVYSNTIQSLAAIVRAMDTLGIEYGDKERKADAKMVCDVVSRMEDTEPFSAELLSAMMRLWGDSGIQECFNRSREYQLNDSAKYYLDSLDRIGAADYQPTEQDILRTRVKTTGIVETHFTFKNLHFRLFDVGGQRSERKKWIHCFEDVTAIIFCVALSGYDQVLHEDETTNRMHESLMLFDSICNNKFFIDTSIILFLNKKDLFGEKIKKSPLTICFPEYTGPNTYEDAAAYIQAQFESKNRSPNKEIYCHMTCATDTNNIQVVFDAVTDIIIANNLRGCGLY
UniProt A7MBH9, 2-355 limits assumed: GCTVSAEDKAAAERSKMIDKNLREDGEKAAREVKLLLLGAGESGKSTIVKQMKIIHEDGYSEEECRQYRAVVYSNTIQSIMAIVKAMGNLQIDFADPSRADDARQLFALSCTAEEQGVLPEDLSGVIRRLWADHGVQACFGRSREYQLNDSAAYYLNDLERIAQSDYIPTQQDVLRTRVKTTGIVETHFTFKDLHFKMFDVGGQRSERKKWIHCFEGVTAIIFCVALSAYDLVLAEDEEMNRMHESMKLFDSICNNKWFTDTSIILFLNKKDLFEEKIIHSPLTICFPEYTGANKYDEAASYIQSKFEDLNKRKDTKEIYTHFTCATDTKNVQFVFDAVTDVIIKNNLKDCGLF

[2] = biological target: T1, mAChR-Gi2 coupling (Bos taurus, UniProt A7MBH9); experiment: GTPγS binding rate in mAChR-Gi2 reconstituted phospholipid vesicles; format: biochemical, porcine mAChR, bovine Gi2
T1 construct: trimeric Gi2 purified from bovine spleen to homogeneity; from tissue; host or cells: bovine spleen (Gi2); porcine brain (mAChR)
Protocol: Materials and Methods The in vitro assays described below utilize the couplone portion of each of a number of G-coupled receptors, instead of an intact receptor molecule, as a means for activating the corresponding anticouplone or intact G-protein. Except as noted below, Gi2 used in this study was trimeric Gi2 (i.e., Gi2 αβγ) purified from bovine brain to near homogeneity (Katada et al., FEBS Lett. 213:353-358 (1987), stored in buffer A (20 mM hepes/NaOH (pH 7.4), 1 mM EDTA, and 0.7% CHAPS), and diluted≥10 fold for assays. The Gi2 used for the reconstitution experiment was trimeric Gi2 purified from bovine spleen to homogeneity and dissolved in buffer B (Morishita et al., 1989). Gi3 α (Morishita et al., Biochem. Biophys. Res. Commun. 172:249-255 (1990), was purified from bovine spleen and used in combination with 1.5-fold concentrated Gβγ (Katada et al., 1987). This preparation of Gi3 α was 10-20% contaminated by Gi1 α, but not by other G proteins. Trimeric Gs and Gβγ purified from bovine brain to near homogeneity (Katada et al., 1987) were also stored in buffer A.
mAChR (muscarinic acetylcholine receptor) was purified from porcine brain to near homogeneity (Haga et al., 1986) and dissolved in 0.5M potassium phosphate buffer (pH 7.0) containing 0.1% digitonin. This receptor preparation was reconstituted with Gi2 in phospholipid vesicles using a gel filtration method as described previously (Nishimoto et al., 1989). The concentrations of mAChR and Gi2 in the vesicles were 6.9 nM and 29 nM, respectively.
as §1
To determine whether ACGi2 uncouples Gi2 from the signals of intact receptors as well as from the signals of their effector peptides, the effects of ACGi2 in mAChR-Gi2 reconstituted phospholipid vesicles was studied (FIG. 4). […]

[3] = biological target: T2, Gi2 (Bos taurus, UniProt A7MBH9); experiment: GTPγS binding, TrM-peptide 14-induced Gi2 activation in phospholipid vesicles; format: biochemical, bovine; conditions: 0.3 nM Gi2 in phospholipid vesicles
T2 construct: trimeric Gi2 (i.e., Gi2 αβγ) purified from bovine brain to near homogeneity; from tissue; host or cells: bovine brain
Protocol: Materials and Methods The in vitro assays described below utilize the couplone portion of each of a number of G-coupled receptors, instead of an intact receptor molecule, as a means for activating the corresponding anticouplone or intact G-protein. […]
as §1, with “GTPγS binding to polypeptides was negligible.” left out, “[^35 S]GTPγS was purchased from DuPont-New England Nuclear. Binding of GTPγS to G proteins obeyed first-order kinetics according to the equation ln[(BT-B)/BT]=-kapp t, where B is the binding at time t and BT is the total binding observable at an infinite time.” left out
Transmembrane domain-connected peptide 14 ["TrM-peptide 14"; […] […] In one of the experiments shown in FIG. 1B, 0.3 nM Gi2 reconstituted in phospholipid vesicles with 100 nM TrM-peptide 14 was exposed to various concentrations of ACGi2, and GTPγS binding was measured (.diamond-solid.). […]

[4] = tested on: CHO cells; experiment: Serum-induced CHO cell growth, BUdR incorporation; format: cell-based; conditions: 24 hours

Question: How did the “potency on MIII-induced Go activation relative to MIII-induced Gi2 activation (less potent)” value ([1]; Go versus Gi2) turn out when “DAVTDVIIKNNLKDC [ACGi2, DAVTDVIIKNNLKDC]” was run?
Answer: ≈ 3 times

Question: What about the “effect on MIII-induced Go activation” value ([1]; at≥10 μM ACGi2 (so in the source), 10 nM Go, 1 μM MIII, 2 min) of the same sequence?
Answer: no effect

Question: And the “rate constant kapp of GTPγS binding to Gi2” value ([2]; 10 mM acetylcholine plus 30 μM ACGi2, basal 0.112±0.005)?
Answer: 0.157 ± 0.013 min⁻¹

Question: And the “concentration at which ACGi2-induced inhibition was saturated” value ([2]; 10 mM acetylcholine, data not shown)?
Answer: 30 µM

Question: What about the “effect on basal Gi2 activity in the absence of acetylcholine” value ([2]; no acetylcholine) of the same sequence?
Answer: no significant effect

Question: What about the “effect on stimulatory effect of 100 nM TrM-peptide 14” value [3] of the same sequence?
Answer: completely blocked

Question: What about the “inhibition of FCS-induced proliferation (BUdR labelling)” value ([4]; 10 μM ACGi2, 10% FCS) of the same sequence?
Answer: significant inhibition

Question: And the “inhibition of FCS-induced proliferation (BUdR labelling)” value ([4]; 100 μM ACGi2, 10% FCS)?
Answer: inhibiting labelling almost completely

From patent publication US5559209A, “Regulator regions of G proteins” (The General Hospital Corporation, priority 1993, dated 1996)
